Record: PubChem BioAssay AID1259308 (NCATS, 2017)

- Purpose: 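Candidate targets for better recombinant protein yield in mammalian cells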 (primary screen)
- Cell system: human HEK293 embryonic kidney cells stably expressing firefly luciferase (HEK-CMV-Luc2-Hygro)
- Reagent: single siRNA against human genes, 0.8 pmol siRNA per well
- Duration: 72 h
- Measurement: 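Reporter luminescence and viable-cell signal on separate replicate plates, given as percent of non-targeting control and median/MAD z-scores, plus per-cell luciferase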
- Reading the numbers: total luciferase, z-score: higher = more reporter protein produced
- Hit rule: 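An siRNA counts as active if its total luciferase robust z-score exceeds 3; genes with two or more such siRNAs out of three were retested with fresh siRNAs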
- Calls: active = raised luciferase; inactive = no rise
Shown is a random part of about 59,000 deposited reagents. Of all reagents, about 1,510 (2.6%) were called active. 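Calls use total luciferase alone and ignore viability, so some active siRNAs may act by altering cell number.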 Reagents against one gene are numbered here. Further read-outs or replicates are left out here.

gene,reagent no.,"total luciferase, z-score",Call
CIP2A,1,0.663,inactive
CIP2A,2,-0.774,inactive
CIP2A,3,-1.1,inactive
SH3KBP1,1,-2.87,inactive
SH3KBP1,2,1.17,inactive
SH3KBP1,3,-0.0424,inactive
SWAP70,1,0.971,inactive
SWAP70,2,1.55,inactive
SWAP70,3,-0.352,inactive
TPRG1L,1,-1.02,inactive
TPRG1L,2,1.8,inactive
TPRG1L,3,0.0716,inactive
PRADC1,1,0.384,inactive
PRADC1,2,-0.635,inactive
PRADC1,3,-0.16,inactive
BDH2,1,1.27,inactive
BDH2,2,-0.181,inactive
BDH2,3,1.23,inactive
NTSR2,1,0.874,inactive
NTSR2,2,0.838,inactive
NTSR2,3,0.142,inactive
CYP7A1,1,0.263,inactive
CYP7A1,2,-0.876,inactive
CYP7A1,3,-0.687,inactive

Already shown: entries from further up.
gene,reagent no.,"total luciferase, z-score",Call
SH3KBP1,1,-2.87,inactive
SH3KBP1,2,1.17,inactive
